## Results of single-concentration screens

Amino acid sequences for entries named in this document (tags omitted). Residues count along the entry.
UniProt Q8IDJ8, 1-583: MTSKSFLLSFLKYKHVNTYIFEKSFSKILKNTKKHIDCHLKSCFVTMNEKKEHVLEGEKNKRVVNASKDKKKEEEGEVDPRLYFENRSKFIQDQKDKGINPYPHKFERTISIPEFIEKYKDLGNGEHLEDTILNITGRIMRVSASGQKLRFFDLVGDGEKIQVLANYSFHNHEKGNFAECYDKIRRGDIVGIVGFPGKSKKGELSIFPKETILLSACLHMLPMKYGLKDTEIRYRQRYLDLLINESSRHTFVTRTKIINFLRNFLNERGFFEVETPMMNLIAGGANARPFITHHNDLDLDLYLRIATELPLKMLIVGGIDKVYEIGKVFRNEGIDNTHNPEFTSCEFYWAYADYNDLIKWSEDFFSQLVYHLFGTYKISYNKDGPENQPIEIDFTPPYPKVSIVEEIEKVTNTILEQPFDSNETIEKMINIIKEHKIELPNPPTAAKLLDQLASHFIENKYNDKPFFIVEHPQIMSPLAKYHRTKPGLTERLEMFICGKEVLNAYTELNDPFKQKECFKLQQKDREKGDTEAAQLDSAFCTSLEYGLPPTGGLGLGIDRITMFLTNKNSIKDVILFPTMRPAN
UniProt P9WFT3, whole entry: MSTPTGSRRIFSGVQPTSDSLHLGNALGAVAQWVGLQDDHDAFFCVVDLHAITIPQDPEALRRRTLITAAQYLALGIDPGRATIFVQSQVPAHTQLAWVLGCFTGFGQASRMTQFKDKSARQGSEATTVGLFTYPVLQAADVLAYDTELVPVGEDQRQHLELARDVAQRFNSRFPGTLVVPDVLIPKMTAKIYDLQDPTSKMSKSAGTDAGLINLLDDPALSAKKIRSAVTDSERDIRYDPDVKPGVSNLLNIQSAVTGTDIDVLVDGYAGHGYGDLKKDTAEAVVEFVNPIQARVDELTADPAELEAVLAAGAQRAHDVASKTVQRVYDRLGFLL

Data taken from ChEMBL document CHEMBL3988442, “University of Dundee, Small-Polar-MMV Screening Library” (2021).

Results are given as percent effect. The record does not define 0% and 100%; most values in the screen are far below 50% and negative numbers occur (in some assays of this library far below -100). The compounds are a random part of those screened. Two or more numbers in one place are separate tests of the same structure; such repeats can differ widely. A dash means the value is not listed here; it may have been measured.

A: 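Enzyme assay of the cytosolic lysyl-tRNA synthetase in 384-well plates, read by luminescence. Target: Lysine-tRNA ligase, Plasmodium falciparum 3D7 (UniProt Q8IDJ8). Compounds at 30 µM. Direction is inferred from only a few compounds that gave an IC50; most scored high, so higher reads as stronger inhibition. Of about 69,000 compounds tested this way, about 49 (0.071%) reached 50% or more in at least one test.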
B: 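Tryptophan-tRNA ligase, Mycobacterium tuberculosis (UniProt P9WFT3). Enzyme assay of tryptophanyl-tRNA synthetase; the read-out is not stated. Compounds at 10 µM. Direction is not recorded; retested compounds ran higher, which suggests that high means inhibition. Size under these conditions: about 65,000 compounds, about 64 of them at 50% or above in at least one test.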
C: 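Cell assay of Leishmania donovani living inside macrophages; the read-out is not stated. Tested at 30 µM. Direction is inferred from retests: higher values go with stronger inhibition. Size under these conditions: about 69,000 compounds, about 1,000 of them at 50% or above in at least one test.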

| # | structure | A | B | C |
|---|---|---|---|---|
| 1 | `CCn1cc(CN2CCN(Cc3cccc(OC)c3)C(=O)C2)cc1C#N` | -1.61 | -2.564 | 24.59 |
| 2 | `CC(C)Oc1cccc(C(=O)Nc2nncs2)c1` | 1.162 | -2.667 | 4.844 |
| 3 | `Cc1cccc(C(=O)N2C[C@H]3CC[C@@H]2CN(S(=O)(=O)N(C)C)C3)n1` | 3.185 | -1.916 | - |
| 4 | `Cn1cccc1C(=O)N1CCC2(CCCN(CC3CC3)C2=O)C1` (stereo not drawn) | 3.795 | -1.077 | 10.8 |
| 5 | `Cc1ccccc1CSc1nc(N)cc(N2CCOCC(CO)C2)n1` (stereo not drawn) | 0.2979 | 13.52 | 3.59 |
| 6 | `CC(C)c1nccc(CN2CCCC(O)(CN(C)C)CC2)n1` (stereo not drawn) | 0.7541 | -0.3221 | 26.85 |
| 7 | `Cc1noc(C)c1-c1cc(CC2CCN(C(=O)c3cc[nH]n3)C2)ncn1` (stereo not drawn) | 3.573 | - | 7.049 and 8.36 |
| 8 | `Cc1nc(C(NC(=O)c2cc(C(C)C)[nH]n2)c2ccccc2)n[nH]1` (stereo not drawn) | 2.901 | 1.821 | -33.82 |
| 9 | `Nc1nccc(NCc2cc3n(n2)CCCN(C(=O)C2CCC2)C3)n1` | 2.893 | 5.674 | 5.647 |
| 10 | `COc1ccc2nnc(CCCC(=O)NCCc3ccccc3)n2n1` | 3.171 | 3.421 | 7.774 |
| 11 | `CC(C)CCNc1nnc(C(C)C)s1` | 0.2655 | -1.341 | -4.997 |
| 12 | `CC(C)N1CCO[C@H]2CN(C(=O)Cc3ccsc3)C[C@H]21` | 2.777 | -2.013 | - |
| 13 | `CN(CCCc1cnn(C)c1)C(=O)Nc1cccc2[nH]nnc12` | 0.3957 | -10.69 | 30.17 |
| 14 | `CC1(C(=O)N2CCN(c3ncccn3)CC2)CNCCO1` (stereo not drawn) | 0.1566 | 5.469 | 12.56 |
| 15 | `Cc1c(Cl)c(C(=O)N2CC(c3cccnc3)C2)nn1C` | 1.386 | -2.974 | -3.875 |
| 16 | `CC(C)CN1CCC(C(=O)NCCNC(=O)c2ccccc2)CC1` | 12.76 | -4.296 | 27.78 |
| 17 | `NC(=O)c1cccc(-c2cnc(C3CCCNC3)cn2)c1` (stereo not drawn) | -0.03492 | -3.198 | 7.732 |
| 18 | `O=S(=O)(CC1CC1)c1ncc(CN2CCOCC2)n1CC1CCCO1` (stereo not drawn) | 0.3541 | -1.57 | 2.048 |
| 19 | `CC(C(=O)Nc1ncccn1)N1CCC(n2ccnc2)CC1` (stereo not drawn) | 0.8062 | -2.784 | 4.041 |
| 20 | `Cc1[nH]c2ccccc2c1-c1ccnc(NCCN2CCCCC2)n1` | 2.776 | - | 21.03 and 19.38 |
| 21 | `CCc1nnsc1C(=O)NCCC1CCCN(C(C)C)C1` (stereo not drawn) | 2.812 | 1.314 | 10.85 |
| 22 | `O=C(NCc1ccc2c(c1)OCO2)N1CCCC2(C1)OCCO2` | 0.5687 | 0.6796 | 23.67 |
| 23 | `COC(=O)[C@@H]1C[C@H](NC(=O)Cn2c(=O)cc(C)c3ccccc32)CN1C` | -4.473 | 14.24 | -7.4 |
| 24 | `COc1cc(C)c(CN2CCC3(CC2)C(C(=O)O)CC(=O)N3C)cc1C` (stereo not drawn) | -7.675 | 1.066 | 0.4629 |
| 25 | `CCOc1ccc(N2CCC(C(O)c3ccccc3)CC2)nn1` (stereo not drawn) | -2.584 | 13.83 | -23.92 |
| 26 | `CCn1cnnc1C1CCN(C(=O)c2cccc(-n3cccc3)c2)CC1` | 3.873 | -1.321 | -3.427 |
| 27 | `CC(=O)N1CCCC2(C1)CN(c1nncs1)CCO2` (stereo not drawn) | 3.792 | - | - |
| 28 | `O=C(NCCSC1CCCC1)c1ccc(F)cc1F` | 3.87 | -0.5623 | 24.13 |
| 29 | `CCn1cc(NC(=O)CCc2ccc3c(c2)OCCCO3)cn1` | -0.3153 | 7.41 | 22.08 |
| 30 | `Cc1nc([C@H]2C[C@@H]3CCN(Cc4ccc5c(c4)OCO5)C[C@H]3O2)no1` | 4.256 | -7.441 | - |
| 31 | `CN(C)C(C(=O)NCc1cc(C(C)(C)C)n[nH]1)c1ccc(F)cc1` (stereo not drawn) | 4.781 | -0.9762 | 14.78 |
| 32 | `O=C1CO[C@@H]2CN(Cc3cccs3)C[C@H]2N1CC1CC1` | 2.992 | -5.465 | - |
| 33 | `Cc1ccc(NCc2cncc3c2CCN(C(=O)C2CC=CC2)C3)nn1.Cl` | - | - | 18.38 |
| 34 | `COc1ccc(C2CC(=O)Nc3c2cnn3C)cc1` (stereo not drawn) | -3.986 | -1.253 | -21.26 |
| 35 | `CCn1nc(C)cc1C(=O)N1CCC(Nc2ccc(C)nn2)CC1` | 4.729 | 1.157 | -65.4 |
| 36 | `COc1ccc(C)cc1-n1cnnc1C1CC(=O)N(C)C1` (stereo not drawn) | -0.9849 | -0.1715 | 4.212 |
| 37 | `CCc1nc(CNCC2CCCN2c2cccnn2)no1` (stereo not drawn) | 0.3116 | 1.379 | 11.22 |
| 38 | `NC(=O)C(NC(=O)CCc1ccc(Cl)s1)c1ccccc1` (stereo not drawn) | 7.519 | 3.981 | 20.24 |
| 39 | `COc1ccc(CN2C[C@@H]3OCCN(CC4CCCO4)[C@@H]3C2)cc1` (stereo partly drawn) | -1.455 | 4.272 | - |
| 40 | `CC(CN1CC[C@@H]2CCCC[C@@H]2C1)n1cnc2ccccc21` (stereo partly drawn) | -2.538 | -1.694 | - |
| 41 | `CC(NC(=O)Cn1cccnc1=O)c1ccc(OC(F)(F)F)cc1` (stereo not drawn) | 4.011 | -2.034 | 14 |
| 42 | `COCC(=O)N1C[C@H](N(C)Cc2cncnc2)[C@H]2OCCC[C@H]21` | 4.113 | - | - |
| 43 | `O=C(Cc1ccncc1)N1C[C@H]2CC[C@@H]1CN(Cc1cccnc1)C2` | -1.432 | 10.16 | - |
| 44 | `CS(=O)(=O)Cc1nc(CN2CC=C(c3ccccc3)CC2)cs1` | 1.344 | -1.397 | -6.344 |
| 45 | `O=C(O)C(F)(F)F.O=C(O)C(F)(F)F.c1cncc(OCc2noc3c2CN(Cc2cccs2)CC3)c1` | - | - | -38.71 |
| 46 | `Cn1cc(CN2CCCC3(CCN(c4nncs4)C3)C2)cn1` (stereo not drawn) | 2.99 | -0.5029 | - |
| 47 | `CN1CCN(Cc2cnc3n2CCN(C(=O)c2cnccn2)C3)CC1` | -0.2786 | -5.514 | 35.67 |
| 48 | `Cc1ocnc1C(=O)N1CCC(c2nccn2Cc2ccncc2)CC1` | 5.479 | 0.6522 | 9.391 |
| 49 | `COC(=O)c1ccc(NC(=O)NC2CCc3[nH]ncc3C2)cc1` (stereo not drawn) | -5.298 | -3.539 | 5.996 |
| 50 | `COc1ccc(CC(=O)N2CCCC2Cn2cc(C)cn2)cc1OC` (stereo not drawn) | -1.531 | -0.1254 | 0.4157 |
| 51 | `CCc1c(C)nc2ccccc2c1N1CCC(C(=O)NC)CC1` | 1.742 | -2.741 | 31.73 |
| 52 | `CCS(=O)(=O)c1ccc2oc([C@H]3CCN(Cc4ccncc4)C3)nc2c1` | 4.161 | -0.6865 | -0.0406 |
| 53 | `Cc1ccc(C)c(CSc2nnc(C(N)Cc3ccccc3)o2)c1.Cl` (stereo not drawn) | - | - | -25.43 |

Repeated from the top, 4 entries:

- CCn1cc(CN2CCN(Cc3cccc(OC)c3)C(=O)C2)cc1C#N : A: -1.61%; B: -2.564%; C: 24.59%
- CC(C)Oc1cccc(C(=O)Nc2nncs2)c1 : A: 1.162%; B: -2.667%; C: 4.844%
- Cc1cccc(C(=O)N2C[C@H]3CC[C@@H]2CN(S(=O)(=O)N(C)C)C3)n1 : A: 3.185%; B: -1.916%
- Cn1cccc1C(=O)N1CCC2(CCCN(CC3CC3)C2=O)C1 (stereo not drawn) : A: 3.795%; B: -1.077%; C: 10.8%